PubChem BioAssay AID686937 – Drosophila RNAi Screening Center | 2013

Test: 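Knock-downs that reduce output of a secreted reporter enzyme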 (primary screen)
Cells: Drosophila S2 cells expressing secreted horseradish peroxidase
Reagents: long dsRNA against Drosophila genes
Time to read-out: about 5.5 days (5 days dsRNA, then 12 h reporter induction)
Treatment: reporter expression induced after 5 days of dsRNA, read 12 h later; inducer not stated
Detection: 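After 5 days of dsRNA and 12 h of reporter induction, medium peroxidase read by chemiluminescence and scored as per-plate z-score; higher values mean more reporter released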
Direction: z-score: higher = more reporter secreted into medium
The screen tested about 23,000 reagents; this is a random part of those that have a named target and a result. 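Reduced-secretion tags in replicate 1 do not always agree with the z-scores; no criterion for assigning the tags was given.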 The numbers tell different reagents against one gene apart. Not all columns of the deposit are shown. The record does not give: the amount of reagent.

With knock-down of CG5597, the screen gave z-score, replicate 1 = 0.37.
hrg (hiiragi) scored z-score, replicate 1 = -1.99; phenotype, replicate 1 = reduced secretion.
Silencing of CG11200 came out at: z-score, replicate 1 = 0.18.
With knock-down of NTPase, the record shows z-score, replicate 1 = 0.21.
CG32795 #1 scored z-score, replicate 1 = 0.2.
With knock-down of CG32795 #2, the record shows z-score, replicate 1 = 0.09.
CG17233 scored z-score, replicate 1 = -2.35; phenotype, replicate 1 = reduced secretion.
lncRNA:noe (long non-coding RNA:noe) showed z-score, replicate 1 = 1.3.
For CG13723, the values are z-score, replicate 1 = 0.34.
For a10 (antennal protein 10) the deposit lists z-score, replicate 1 = 0.14.
pwn (pawn) showed z-score, replicate 1 = -0.3.
Depletion of Best4 (Bestrophin 4) came out at: z-score, replicate 1 = 0.11.
CG31729 #1 showed z-score, replicate 1 = 0.01.
Knock-down of CG31729 #2 resulted in: z-score, replicate 1 = 0.26.
For Fit2 (Fermitin 2) the deposit lists z-score, replicate 1 = 0.24.
Silencing of CG14883 gave: z-score, replicate 1 = -0.6.
